± gives the standard deviation of the averaged measurements. This is one part of the list.
Compound: Nc1nc2c(ncn2[C@@H]2O[C@H](COP(=O)(O)OP(=O)(O)OP(=O)(O)O)[C@@H](O)[C@H]2O)c(=O)[nH]1 [guanosine triphosphate]
Assay: NP40-soluble protein abundance relative to vehicle (solubility fold change) (ratio); higher = more soluble protein in presence of GTP
Method in brief: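 Eight concentrations, 0.1 to 10 mM, were tested on Jurkat crude lysate for 10 min at room temperature and then 3 min at 37 °C, in three independent experiments. The lysate was solubilised with 0.8% NP40 and benzonase, ultracentrifuged, and the supernatant TMT-labelled for LC-MS/MS. Each value is the fold change against the detergent-processed vehicle in its own replicate, from vsn-normalised intensities.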

Amino acid sequences for entries named in this document (tags omitted). A change or cut given only in a name is not applied to a line headed by its entry.
UniProt Q96BD8: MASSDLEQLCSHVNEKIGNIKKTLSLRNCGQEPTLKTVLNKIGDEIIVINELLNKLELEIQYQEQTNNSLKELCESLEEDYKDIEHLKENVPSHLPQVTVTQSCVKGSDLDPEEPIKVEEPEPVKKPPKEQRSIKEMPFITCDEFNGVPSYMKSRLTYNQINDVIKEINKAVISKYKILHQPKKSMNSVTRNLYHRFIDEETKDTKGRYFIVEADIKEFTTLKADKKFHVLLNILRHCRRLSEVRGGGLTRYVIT
UniProt Q96EK9: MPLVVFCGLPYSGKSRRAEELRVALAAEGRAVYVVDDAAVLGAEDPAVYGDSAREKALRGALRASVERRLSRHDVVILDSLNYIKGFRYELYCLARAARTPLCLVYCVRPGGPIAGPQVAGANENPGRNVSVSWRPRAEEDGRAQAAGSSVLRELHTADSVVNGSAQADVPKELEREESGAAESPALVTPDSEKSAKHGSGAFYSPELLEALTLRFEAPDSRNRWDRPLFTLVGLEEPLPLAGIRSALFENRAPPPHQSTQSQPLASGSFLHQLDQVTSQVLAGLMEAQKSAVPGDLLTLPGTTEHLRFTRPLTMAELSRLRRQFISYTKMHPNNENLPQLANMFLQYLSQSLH
UniProt Q96K58: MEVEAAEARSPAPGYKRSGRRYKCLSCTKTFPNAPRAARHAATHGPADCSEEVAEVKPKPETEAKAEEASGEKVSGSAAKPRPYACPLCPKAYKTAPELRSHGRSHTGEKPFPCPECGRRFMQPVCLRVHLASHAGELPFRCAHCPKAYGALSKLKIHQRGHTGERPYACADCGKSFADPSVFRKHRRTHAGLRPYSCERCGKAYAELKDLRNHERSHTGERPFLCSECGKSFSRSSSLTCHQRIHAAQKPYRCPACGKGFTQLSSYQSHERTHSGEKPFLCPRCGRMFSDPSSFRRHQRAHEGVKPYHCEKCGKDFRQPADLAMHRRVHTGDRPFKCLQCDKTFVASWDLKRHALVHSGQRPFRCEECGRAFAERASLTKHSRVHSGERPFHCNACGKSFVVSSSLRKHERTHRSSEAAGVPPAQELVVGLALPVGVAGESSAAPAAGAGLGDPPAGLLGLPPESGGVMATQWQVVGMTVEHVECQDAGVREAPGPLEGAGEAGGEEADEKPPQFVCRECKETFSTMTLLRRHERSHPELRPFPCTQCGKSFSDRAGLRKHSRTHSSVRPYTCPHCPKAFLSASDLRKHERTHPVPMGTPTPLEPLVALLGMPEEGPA
UniProt Q8WUF5: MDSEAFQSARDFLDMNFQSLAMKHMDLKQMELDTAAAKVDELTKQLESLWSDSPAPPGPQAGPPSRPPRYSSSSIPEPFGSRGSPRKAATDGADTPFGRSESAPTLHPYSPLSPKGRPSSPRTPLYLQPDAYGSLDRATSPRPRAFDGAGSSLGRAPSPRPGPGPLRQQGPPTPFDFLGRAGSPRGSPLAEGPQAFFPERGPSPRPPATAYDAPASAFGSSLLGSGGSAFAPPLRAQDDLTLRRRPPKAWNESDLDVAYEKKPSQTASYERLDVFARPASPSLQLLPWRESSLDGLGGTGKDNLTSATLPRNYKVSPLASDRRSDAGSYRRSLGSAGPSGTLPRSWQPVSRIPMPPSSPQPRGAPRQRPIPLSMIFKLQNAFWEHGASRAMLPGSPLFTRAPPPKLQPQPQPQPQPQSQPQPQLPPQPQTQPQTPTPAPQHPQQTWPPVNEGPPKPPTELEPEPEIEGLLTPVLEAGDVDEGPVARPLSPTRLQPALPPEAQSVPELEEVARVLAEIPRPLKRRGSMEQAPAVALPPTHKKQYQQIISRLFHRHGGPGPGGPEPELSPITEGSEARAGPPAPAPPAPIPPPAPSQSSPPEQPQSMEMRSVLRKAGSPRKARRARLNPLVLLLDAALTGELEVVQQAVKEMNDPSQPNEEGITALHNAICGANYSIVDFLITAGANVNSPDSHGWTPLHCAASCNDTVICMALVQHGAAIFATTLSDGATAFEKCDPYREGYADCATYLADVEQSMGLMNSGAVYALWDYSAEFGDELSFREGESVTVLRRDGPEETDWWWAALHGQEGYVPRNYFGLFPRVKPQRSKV
UniProt Q92547, whole entry: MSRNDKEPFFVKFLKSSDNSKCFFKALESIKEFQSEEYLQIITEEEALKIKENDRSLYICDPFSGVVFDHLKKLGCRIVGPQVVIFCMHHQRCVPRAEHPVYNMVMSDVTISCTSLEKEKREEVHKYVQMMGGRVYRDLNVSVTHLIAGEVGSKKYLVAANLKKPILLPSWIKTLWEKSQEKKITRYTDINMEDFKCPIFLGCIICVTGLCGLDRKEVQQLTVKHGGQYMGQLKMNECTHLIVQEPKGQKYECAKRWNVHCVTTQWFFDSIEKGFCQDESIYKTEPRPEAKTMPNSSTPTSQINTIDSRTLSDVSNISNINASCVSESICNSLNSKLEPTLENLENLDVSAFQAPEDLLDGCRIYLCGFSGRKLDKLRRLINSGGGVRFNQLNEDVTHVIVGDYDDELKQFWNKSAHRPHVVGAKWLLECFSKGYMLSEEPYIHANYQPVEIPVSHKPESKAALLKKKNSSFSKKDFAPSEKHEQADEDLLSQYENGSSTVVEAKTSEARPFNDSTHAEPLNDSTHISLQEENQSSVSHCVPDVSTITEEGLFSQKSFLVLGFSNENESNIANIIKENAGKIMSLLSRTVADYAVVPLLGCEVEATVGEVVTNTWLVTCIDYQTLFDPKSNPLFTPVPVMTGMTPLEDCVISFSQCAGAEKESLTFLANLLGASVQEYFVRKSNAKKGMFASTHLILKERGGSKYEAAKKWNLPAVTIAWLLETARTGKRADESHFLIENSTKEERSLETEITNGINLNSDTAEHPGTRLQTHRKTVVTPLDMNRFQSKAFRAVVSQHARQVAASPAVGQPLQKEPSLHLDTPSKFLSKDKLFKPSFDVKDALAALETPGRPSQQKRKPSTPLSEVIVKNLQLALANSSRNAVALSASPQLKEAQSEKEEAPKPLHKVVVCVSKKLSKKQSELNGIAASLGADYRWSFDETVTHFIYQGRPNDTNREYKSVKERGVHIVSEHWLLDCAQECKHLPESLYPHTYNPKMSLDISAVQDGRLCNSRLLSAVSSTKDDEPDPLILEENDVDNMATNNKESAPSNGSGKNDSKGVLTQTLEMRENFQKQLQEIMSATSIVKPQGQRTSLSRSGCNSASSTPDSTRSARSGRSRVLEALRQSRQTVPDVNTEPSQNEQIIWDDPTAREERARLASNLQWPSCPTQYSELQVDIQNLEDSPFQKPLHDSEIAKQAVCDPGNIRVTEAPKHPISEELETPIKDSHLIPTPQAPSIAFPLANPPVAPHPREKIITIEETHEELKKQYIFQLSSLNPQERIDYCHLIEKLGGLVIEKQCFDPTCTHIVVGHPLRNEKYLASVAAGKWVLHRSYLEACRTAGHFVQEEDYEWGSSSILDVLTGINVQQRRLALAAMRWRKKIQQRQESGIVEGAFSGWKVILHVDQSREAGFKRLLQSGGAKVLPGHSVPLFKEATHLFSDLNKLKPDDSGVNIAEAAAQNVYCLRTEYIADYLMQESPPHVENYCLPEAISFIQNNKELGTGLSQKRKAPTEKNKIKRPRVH
UniProt Q96IZ0: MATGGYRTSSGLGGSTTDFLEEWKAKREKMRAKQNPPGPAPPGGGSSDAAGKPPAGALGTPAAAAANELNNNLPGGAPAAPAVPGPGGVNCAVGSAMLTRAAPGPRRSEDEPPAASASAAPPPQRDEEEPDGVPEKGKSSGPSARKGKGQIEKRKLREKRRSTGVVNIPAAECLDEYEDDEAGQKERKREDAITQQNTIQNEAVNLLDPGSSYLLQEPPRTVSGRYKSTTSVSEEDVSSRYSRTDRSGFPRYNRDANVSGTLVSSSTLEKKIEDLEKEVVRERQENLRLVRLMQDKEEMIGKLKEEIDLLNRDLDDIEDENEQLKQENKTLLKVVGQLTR
UniProt Q96JK2, whole entry: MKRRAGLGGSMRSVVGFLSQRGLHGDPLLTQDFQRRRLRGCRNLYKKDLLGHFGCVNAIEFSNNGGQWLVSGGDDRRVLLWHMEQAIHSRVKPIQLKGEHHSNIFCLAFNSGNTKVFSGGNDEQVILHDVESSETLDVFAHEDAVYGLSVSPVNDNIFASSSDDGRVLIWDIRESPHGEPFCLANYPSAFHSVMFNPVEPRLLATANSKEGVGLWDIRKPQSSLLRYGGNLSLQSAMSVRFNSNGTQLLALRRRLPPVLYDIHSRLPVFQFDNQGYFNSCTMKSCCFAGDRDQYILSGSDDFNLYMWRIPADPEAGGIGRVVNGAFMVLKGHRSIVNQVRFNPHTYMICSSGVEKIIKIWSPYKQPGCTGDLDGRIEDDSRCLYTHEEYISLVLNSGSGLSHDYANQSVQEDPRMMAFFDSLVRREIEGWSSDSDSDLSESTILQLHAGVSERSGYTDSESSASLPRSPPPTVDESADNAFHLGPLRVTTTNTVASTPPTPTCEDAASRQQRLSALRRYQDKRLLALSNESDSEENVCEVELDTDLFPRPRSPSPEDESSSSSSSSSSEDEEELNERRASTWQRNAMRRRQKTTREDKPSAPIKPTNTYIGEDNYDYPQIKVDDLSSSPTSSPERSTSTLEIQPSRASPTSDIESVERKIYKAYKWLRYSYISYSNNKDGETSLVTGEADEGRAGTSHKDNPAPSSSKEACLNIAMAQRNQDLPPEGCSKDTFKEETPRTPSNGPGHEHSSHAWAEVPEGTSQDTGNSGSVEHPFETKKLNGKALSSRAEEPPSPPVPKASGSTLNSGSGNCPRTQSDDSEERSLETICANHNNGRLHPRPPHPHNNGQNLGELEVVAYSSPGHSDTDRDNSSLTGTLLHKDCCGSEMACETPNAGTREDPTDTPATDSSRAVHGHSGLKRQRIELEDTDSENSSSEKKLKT
UniProt Q96J84: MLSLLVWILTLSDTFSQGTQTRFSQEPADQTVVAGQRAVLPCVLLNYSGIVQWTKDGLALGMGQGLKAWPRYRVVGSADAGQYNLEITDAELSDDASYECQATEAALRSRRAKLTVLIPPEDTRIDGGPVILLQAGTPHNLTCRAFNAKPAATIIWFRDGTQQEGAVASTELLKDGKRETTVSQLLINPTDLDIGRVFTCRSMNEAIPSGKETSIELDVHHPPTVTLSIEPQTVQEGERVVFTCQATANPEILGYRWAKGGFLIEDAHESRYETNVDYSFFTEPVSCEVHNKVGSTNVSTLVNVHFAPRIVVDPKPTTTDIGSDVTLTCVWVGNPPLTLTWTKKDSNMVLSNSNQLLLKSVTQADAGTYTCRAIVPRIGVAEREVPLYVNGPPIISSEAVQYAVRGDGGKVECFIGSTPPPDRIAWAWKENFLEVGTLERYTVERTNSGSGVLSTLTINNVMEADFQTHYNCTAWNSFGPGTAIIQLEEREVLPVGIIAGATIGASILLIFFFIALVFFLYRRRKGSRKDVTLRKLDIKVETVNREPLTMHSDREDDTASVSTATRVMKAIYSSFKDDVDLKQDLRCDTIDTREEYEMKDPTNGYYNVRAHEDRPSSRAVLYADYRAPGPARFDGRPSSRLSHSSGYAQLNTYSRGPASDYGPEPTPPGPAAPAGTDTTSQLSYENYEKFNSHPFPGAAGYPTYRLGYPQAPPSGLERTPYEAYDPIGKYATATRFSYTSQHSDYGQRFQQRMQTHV
UniProt Q8WUY8: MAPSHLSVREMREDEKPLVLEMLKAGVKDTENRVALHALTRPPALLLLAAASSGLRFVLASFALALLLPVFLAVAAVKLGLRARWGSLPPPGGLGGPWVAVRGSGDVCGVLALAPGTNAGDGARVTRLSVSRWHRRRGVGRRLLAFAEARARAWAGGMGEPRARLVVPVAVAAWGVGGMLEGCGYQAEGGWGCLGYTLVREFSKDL
UniProt Q92734, whole entry: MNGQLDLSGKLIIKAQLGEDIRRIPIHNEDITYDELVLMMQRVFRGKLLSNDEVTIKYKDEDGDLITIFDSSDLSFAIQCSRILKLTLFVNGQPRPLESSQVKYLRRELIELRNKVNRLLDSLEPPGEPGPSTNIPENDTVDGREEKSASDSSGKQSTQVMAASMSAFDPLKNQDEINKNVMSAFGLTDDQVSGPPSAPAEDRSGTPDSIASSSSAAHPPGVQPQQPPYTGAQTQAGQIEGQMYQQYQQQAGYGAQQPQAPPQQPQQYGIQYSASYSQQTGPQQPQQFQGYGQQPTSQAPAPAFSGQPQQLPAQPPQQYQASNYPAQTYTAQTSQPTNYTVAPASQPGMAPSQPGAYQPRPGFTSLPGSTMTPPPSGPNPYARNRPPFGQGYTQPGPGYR
UniProt Q8WVE0: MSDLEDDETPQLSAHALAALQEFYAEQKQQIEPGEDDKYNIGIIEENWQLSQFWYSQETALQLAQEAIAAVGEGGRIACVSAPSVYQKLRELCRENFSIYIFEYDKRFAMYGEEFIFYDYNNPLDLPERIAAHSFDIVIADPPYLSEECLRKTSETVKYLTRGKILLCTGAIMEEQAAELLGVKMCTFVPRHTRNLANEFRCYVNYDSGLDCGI

Row | Target | NP40-soluble protein abundance (concentration: 0.1mM) | NP40-soluble protein abundance (concentration: 0.5mM) | NP40-soluble protein abundance (concentration: 1mM) | NP40-soluble protein abundance (concentration: 2mM) | NP40-soluble protein abundance (concentration: 4mM) | NP40-soluble protein abundance (concentration: 6mM) | NP40-soluble protein abundance (concentration: 8mM) | NP40-soluble protein abundance (concentration: 10mM)
1 | ELP4 (UniProt Q96EB1) | 1.11 ± 0.035 | 1.07 ± 0.025 | 1.06 ± 0.023 | 1.1 ± 0.072 | 1.08 ± 0.077 | 1.08 ± 0.075 | 1.08 ± 0.089 | 1.05 ± 0.059
2 | MARS2 (UniProt Q96GW9) | 1.03 ± 0.033 | 1.05 ± 0.053 | 0.943 ± 0.096 | 0.967 ± 0.05 | 0.991 ± 0.052 | 0.937 ± 0.037 | 0.938 ± 0.079 | 0.917 ± 0.073
3 | TOE1 (UniProt Q96GM8) | 1.06 ± 0.11 | 1.018 ± 0.0096 | 1.09 ± 0.12 | 1.14 ± 0.049 | 1.24 ± 0.097 | 1.33 ± 0.052 | 1.42 ± 0.11 | 1.65 ± 0.1
4 | UniProt Q96BD8 | 0.949 ± 0.1 | 0.858 ± 0.087 | 1.04 ± 0.15 | 0.976 ± 0.081 | 0.9603 ± 0.0096 | 0.936 ± 0.024 | 0.925 ± 0.079 | 0.989 ± 0.042
5 | UniProt Q8WX93 and related entries | 1 ± 0.064 | 0.977 ± 0.044 | 1.02 ± 0.053 | 0.958 ± 0.038 | 0.956 ± 0.055 | 0.933 ± 0.02 | 0.971 ± 0.051 | 0.9261 ± 0.0074
6 | KTI12 (UniProt Q96EK9) | 0.945 ± 0.052 | 0.849 ± 0.043 | 1.05 ± 0.066 | 1.05 ± 0.057 | 1.04 ± 0.041 | 0.992 ± 0.06 | 0.947 ± 0.085 | 1.04 ± 0.027
7 | UniProt Q96K58 and related entries | 0.983 ± 0.033 | 0.943 ± 0.074 | 1 ± 0.042 | 0.9476 ± 0.0083 | 0.938 ± 0.1 | 0.964 ± 0.019 | 0.939 ± 0.059 | 0.9641 ± 9.1e-05
8 | UniProt Q92608 and related entries | 1.08 ± 0.049 | 1.14 ± 0.11 | 1.05 ± 0.06 | 1.14 ± 0.12 | 1.14 ± 0.096 | 1.16 ± 0.1 | 1.11 ± 0.056 | 1.09 ± 0.062
9 | NARS2 (UniProt Q96I59) | 1 ± 0.074 | 1.02 ± 0.084 | 0.883 ± 0.04 | 0.907 ± 0.092 | 0.856 ± 0.083 | 0.871 ± 0.055 | 0.85 ± 0.024 | 0.792 ± 0.098
10 | UniProt Q96HE7 | 0.994 ± 0.011 | 0.977 ± 0.021 | 0.955 ± 0.018 | 0.94 ± 0.04 | 0.898 ± 0.059 | 0.906 ± 0.048 | 0.893 ± 0.054 | 0.874 ± 0.066
11 | PPP1R13L (UniProt Q8WUF5) | 1.14 ± 0.17 | 1.22 ± 0.2 | 1.19 ± 0.25 | 1.2 ± 0.17 | 1.14 ± 0.082 | 1.17 ± 0.14 | 1.2 ± 0.17 | 1.14 ± 0.017
12 | TOPBP1 (UniProt Q92547) | 0.993 ± 0.023 | 0.99 ± 0.055 | 0.985 ± 0.019 | 1.01 ± 0.046 | 1.03 ± 0.038 | 1 ± 0.036 | 0.998 ± 0.055 | 0.9898 ± 0.0049
13 | PAWR (UniProt Q96IZ0) | 0.88 ± 0.064 | 0.8149 ± 0.0025 | 0.9512 ± 0.006 | 0.916 ± 0.016 | 0.876 ± 0.017 | 0.868 ± 0.031 | 0.916 ± 0.036 | 0.949 ± 0.029
14 | UniProt Q96JK2 and related entries | 1.18 ± 0.092 | 1.15 ± 0.088 | 1.07 ± 0.066 | 1.13 ± 0.08 | 1.14 ± 0.1 | 1.03 ± 0.095 | 1.09 ± 0.07 | 1.01 ± 0.071
15 | UniProt Q96J84 and related entries | 1.1 ± 0.061 | 1.11 ± 0.2 | 1.09 ± 0.11 | 1.09 ± 0.03 | 1.174 ± 0.011 | 1.07 ± 0.052 | 1.03 ± 0.062 | 1.06 ± 0.11
16 | UniProt Q96CN4 and related entries | 0.974 ± 0.14 | 0.94 ± 0.019 | 0.959 ± 0.066 | 0.964 ± 0.019 | 1.01 ± 0.043 | 1.03 ± 0.1 | 0.976 ± 0.1 | 1 ± 0.063
17 | NAT14 (UniProt Q8WUY8) | 0.993 ± 0.049 | 1.049 ± 0.0069 | 0.834 ± 0.088 | 0.974 ± 0.069 | 1.05 ± 0.017 | 0.954 ± 0.025 | 0.87411 ± 0.0008 | 0.9323 ± 0.0022
18 | PIGK (UniProt Q92643) | 1.04 ± 0.048 | 1.09 ± 0.086 | 0.977 ± 0.047 | 0.997 ± 0.066 | 1 ± 0.054 | 0.983 ± 0.1 | 0.934 ± 0.075 | 0.876 ± 0.015
19 | UniProt Q96GD0 and related entries | 0.991 ± 0.027 | 0.969 ± 0.064 | 0.857 ± 0.046 | 0.886 ± 0.06 | 0.878 ± 0.044 | 0.85 ± 0.033 | 0.816 ± 0.067 | 0.823 ± 0.041
20 | RAB8B (UniProt Q92930) | 0.966 ± 0.018 | 0.949 ± 0.031 | 0.923 ± 0.03 | 0.853 ± 0.049 | 0.853 ± 0.051 | 0.845 ± 0.061 | 0.845 ± 0.044 | 0.808 ± 0.066
21 | UniProt Q8WYP5 and related entries | 1.07 ± 0.029 | 1.08 ± 0.026 | 1.09 ± 0.04 | 1.16 ± 0.054 | 1.3 ± 0.046 | 1.36 ± 0.085 | 1.49 ± 0.09 | 1.55 ± 0.11
22 | UniProt Q92734 and related entries | 0.962 ± 0.023 | 0.954 ± 0.015 | 0.975 ± 0.026 | 0.961 ± 0.035 | 0.939 ± 0.037 | 0.952 ± 0.036 | 0.954 ± 0.015 | 0.987 ± 0.03
23 | UniProt Q8WVE0 | 0.96 ± 0.05 | 1.07 ± 0.034 | 0.874 ± 0.048 | 0.924 ± 0.1 | 0.939 ± 0.042 | 0.882 ± 0.034 | 0.866 ± 0.088 | 0.922 ± 0.07
24 | UniProt Q96G23 | 0.969 ± 0.084 | 0.989 ± 0.13 | 0.946 ± 0.11 | 0.935 ± 0.098 | 0.965 ± 0.084 | 0.941 ± 0.12 | 0.968 ± 0.12 | 0.935 ± 0.096
25 | UniProt Q96JM3 | 0.984 ± 0.039 | 0.972 ± 0.074 | 1.03 ± 0.059 | 1.05 ± 0.067 | 1.13 ± 0.067 | 1.15 ± 0.068 | 1.28 ± 0.15 | 1.26 ± 0.16
26 | PCNP (UniProt Q8WW12) | 0.932 ± 0.022 | 0.996 ± 0.037 | 1.07 ± 0.041 | 1.05 ± 0.019 | 1.04 ± 0.027 | 1.08 ± 0.048 | 1.15 ± 0.049 | 1.2 ± 0.036
27 | SUCLG2 (UniProt Q96I99) | 0.959 ± 0.049 | 0.966 ± 0.053 | 0.933 ± 0.043 | 0.901 ± 0.06 | 0.889 ± 0.059 | 0.889 ± 0.052 | 0.886 ± 0.048 | 0.871 ± 0.068
28 | GGH (UniProt Q92820) | 0.965 ± 0.053 | 0.933 ± 0.041 | 0.932 ± 0.065 | 0.895 ± 0.061 | 0.9 ± 0.097 | 0.909 ± 0.082 | 0.873 ± 0.078 | 0.871 ± 0.069
29 | WDR89 (UniProt Q96FK6) | 1.06 ± 0.077 | 1.09 ± 0.065 | 1.12 ± 0.048 | 1.15 ± 0.079 | 1.18 ± 0.043 | 1.31 ± 0.022 | 1.28 ± 0.069 | 1.25 ± 0.1
30 | UniProt Q8WXH0 and related entries | 0.9889 ± 0.0062 | 1.03 ± 0.022 | 1.025 ± 0.0021 | 1.007 ± 0.0037 | 0.9917 ± 0.0062 | 1.01 ± 0.015 | 1.03 ± 0.023 | 1.03 ± 0.031

Some of the entries so far, as tab-separated lines:
Row	Target	NP40-soluble protein abundance (concentration: 0.1mM)	NP40-soluble protein abundance (concentration: 0.5mM)	NP40-soluble protein abundance (concentration: 1mM)	NP40-soluble protein abundance (concentration: 2mM)	NP40-soluble protein abundance (concentration: 4mM)	NP40-soluble protein abundance (concentration: 6mM)	NP40-soluble protein abundance (concentration: 8mM)	NP40-soluble protein abundance (concentration: 10mM)
9	NARS2 (UniProt Q96I59)	1 ± 0.074	1.02 ± 0.084	0.883 ± 0.04	0.907 ± 0.092	0.856 ± 0.083	0.871 ± 0.055	0.85 ± 0.024	0.792 ± 0.098
10	UniProt Q96HE7	0.994 ± 0.011	0.977 ± 0.021	0.955 ± 0.018	0.94 ± 0.04	0.898 ± 0.059	0.906 ± 0.048	0.893 ± 0.054	0.874 ± 0.066
